In patent US20140121131A1:
Results are given in words; binding and its absence hold for the method and conditions named. Some entries that bind do so weakly or less than the wild type. Where a sequence is shown, tags or fusion partners need not be part of it.

Molecular target: biotinylated His6-GFP [GFP: P42212]
Assay: phage capture on streptavidin Dynal beads labelled with biotinylated His6-GFP

B1: αGFP::I27::gpL fusion protein (VHH)
chain: MGDGMQVQLVESGGALVQPGGSLRLSCAASGFPVNRYSMRWYRQAPGKEREWVAGMSSAGDRSSYEDSVKGRFTISRDDARNTVYLQMNSLKPEDTAVYYSNVNVGFEYWGQGTQVTVSSNSSSQTSLIEVEKPLYGVEVFVGETAHFEIELSEPDVHGQWKLKGQPLTASPDCEIIEDGKKHILILHNCQLGMTGEVSFQAANAKSAANLKVKELNSSSDYKDDDDKGNGTLIIPRKEAPVSGEGTVVIPQPAGDEPVIKNTFFFPDIDPKRVRERMRLEQTVAPARLREAIKSGMAETNAELYEYREQKIAAGFTRLADVPADDIDGESIKVFYYERAVCAMATASLYERYRGVDASAKGDKKADSIDSTIDELWRDMRWAVARIQGKPRCIVSQI
binding: binds
